# According to paper PMC13484441:
# Results are given in words; binding and its absence hold for the method and conditions named. Binding seen in cells or lysates may run through a third protein. These calls come from enrichment with a bait or labelling near it, and not all partners need be listed. Tags and fused reporters may be left off the sequences shown.
# B1: DDX42 (protein, UniProt Q86XP3 1-938)
# chain: MNWNKGGPGTKRGFGFGGFAISAGKKEEPKLPQQSHSAFGATSSSSGFGKSAPPQLPSFYKIGSKRANFDEENAYFEDEEEDSSNVDLPYIPAENSPTRQQFHSKPVDSDSDDDPLEAFMAEVEDQAARDMKRLEEKDKERKNVKGIRDDIEEEDDQEAYFRYMAENPTAGVVQEEEEDNLEYDSDGNPIAPTKKIIDPLPPIDHSEIDYPPFEKNFYNEHEEITNLTPQQLIDLRHKLNLRVSGAAPPRPGSSFAHFGFDEQLMHQIRKSEYTQPTPIQCQGVPVALSGRDMIGIAKTGSGKTAAFIWPMLIHIMDQKELEPGDGPIAVIVCPTRELCQQIHAECKRFGKAYNLRSVAVYGGGSMWEQAKALQEGAEIVVCTPGRLIDHVKKKATNLQRVSYLVFDEADRMFDMGFEYQVRSIASHVRPDRQTLLFSATFRKKIEKLARDILIDPIRVVQGDIGEANEDVTQIVEILHSGPSKWNWLTRRLVEFTSSGSVLLFVTKKANAEELANNLKQEGHNLGLLHGDMDQSERNKVISDFKKKDIPVLVATDVAARGLDIPSIKTVINYDVARDIDTHTHRIGRTGRAGEKGVAYTLLTPKDSNFAGDLVRNLEGANQHVSKELLDLAMQNAWFRKSRFKGGKGKKLNIGGGGLGYRERPGLGSENMDRGNNNVMSNYEAYKPSTGAMGDRLTAMKAAFQSQYKSHFVAASLSNQKAGSSAAGASGWTSAGSLNSVPTNSAQQGHNSPDSPVTSAAKGIPGFGNTGNISGAPVTYPSAGAQGVNNTASGNNSREGTGGSNGKRERYTENRGSSRHSHGETGNRHSDSPRHGDGGRHGDGYRHPESSSRHTDGHRHGENRHGGSAGRHGENRGANDGRNGESRKEAFNRESKMEPKMEPKVDSSKMDKVDSKTDKTADGFAVPEPPKRKKSRWDS
# B2: U2AF2, P26368 1-475 (protein)
# chain: MSDFDEFERQLNENKQERDKENRHRKRSHSRSRSRDRKRRSRSRDRRNRDQRSASRDRRRRSKPLTRGAKEEHGGLIRSPRHEKKKKVRKYWDVPPPGFEHITPMQYKAMQAAGQIPATALLPTMTPDGLAVTPTPVPVVGSQMTRQARRLYVGNIPFGITEEAMMDFFNAQMRLGGLTQAPGNPVLAVQINQDKNFAFLEFRSVDETTQAMAFDGIIFQGQSLKIRRPHDYQPLPGMSENPSVYVPGVVSTVVPDSAHKLFIGGLPNYLNDDQVKELLTSFGPLKAFNLVKDSATGLSKGYAFCEYVDINVTDQAIAGLNGMQLGDKKLLVQRASVGAKNATLVSPPSTINQTPVTLQVPGLMSSQVQMGGHPTEVLCLMNMVLPEELLDDEEYEEIVEDVRDECSKYGLVKSIEIPRPVDGVEVPGCGKIFVEFTSVFDCQKAMQGLTGRKFANRVVVTKYCDPDSYHRRDFW
# What was measured:
# [1] = target: T1, U2AF1-3XFLAG (endogenously tagged U2AF1) (human (endogenous in HBEC)) (UniProt Q01081); assay: affinity purification with mass spectrometry; anti-FLAG magnetic beads incubated with HBEC nuclear extract of U2AF1-3XFLAG cells overnight at 4°C, washed three times with nuclear lysis buffer, on-bead digestion, TMTpro LC-MS/MS; control: parental HBEC line without the tag; n = 3 replicates
# T1 sequence: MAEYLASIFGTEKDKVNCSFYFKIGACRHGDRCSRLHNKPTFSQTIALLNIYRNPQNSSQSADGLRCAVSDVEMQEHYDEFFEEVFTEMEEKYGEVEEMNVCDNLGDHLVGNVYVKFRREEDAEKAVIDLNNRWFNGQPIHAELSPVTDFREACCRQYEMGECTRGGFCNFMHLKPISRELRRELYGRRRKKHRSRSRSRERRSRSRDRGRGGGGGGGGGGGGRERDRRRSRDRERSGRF
# [2] = target: T2, U2AF1-3XFLAG (endogenously tagged U2AF1) (human (endogenous in HBEC)), Q01081; assay: as above; conditions: remark: other sources report otherwise
# T2 chain: T1 sequence
Binder,binding [1],binding [2]
B1,binds,–
B2,–,binds
